Measured values published in US8658599B2, “Peptide for the prophylactic or therapeutic treatment of skin tumors in initial stages” (Digna Biotech, S.L., priority 2009, dated 2014).
Several values for one entry are separate records, joined by “and”; a condition that tells them apart may be missing. Equal values may be shown once. At least one peptide structure holds a part that was inferred or is arguable (an end, a ring closure or a residue). Where no end group is shown, it is not given here.

By UniProt entry, the sequences of proteins in these tests, tags left out. Residues count along the entry.
UniProt P01137, 279-390 limits assumed, species assumed: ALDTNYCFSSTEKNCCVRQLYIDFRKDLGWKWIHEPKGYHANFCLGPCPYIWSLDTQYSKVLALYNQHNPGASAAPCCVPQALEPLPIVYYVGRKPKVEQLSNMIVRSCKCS

What was measured:
[1] = test system: skin tumors (papillomas, carcinomas) induced by DMBA/TPA; assay: Two-stage DMBA/TPA chemical skin carcinogenesis in mice, topical disitertide cream; type: in vivo, Swiss albino mice; settings: for Mean number of tumors per mouse at week 10 post-initiation / Mean number of tumors per mouse at week 14 post-initiation / Mean number of tumors per mouse at week 25 post-initiation / Mean number of tumors per mouse at week 32 post-initiation / Appearance of the first carcinoma, weeks after initiation / Mean number of tumors >5 mm in diameter per mouse at week 14 after initiation / Mean number of tumors >5 mm in diameter per mouse at week 25 after initiation / Mean number of tumors >5 mm in diameter per mouse at week 32 after initiation: DMBA/TPA; for Mean number of tumors per mouse at week 10 post-initiation / Mean number of tumors per mouse at week 14 post-initiation / Mean number of tumors per mouse at week 25 post-initiation / Mean number of tumors per mouse at week 32 post-initiation: tumors >2 mm; for Appearance of the first carcinoma, weeks after initiation: visual observation
TGF-β1 = biological target: T1, TGF-β1 (Homo sapiens, UniProt P01137); settings: shown previously, WO 00/31135; cited from earlier work
T1 construct: host or cells: My-1-Lu cell line (so in the source)

[2] = group 5, disitertide cream weeks 0-4, 60 μg every 2 days
[3] = group 5, disitertide cream weeks 0-4
[4] = group 6, disitertide cream weeks 0-12, 60 μg every 2 days
[5] = group 6, disitertide cream weeks 0-12
[6] = group 7, disitertide cream weeks 12-32, 120 μg every 2 days
[7] = group 7, disitertide cream weeks 12-32

With TSLDASIIWAMMQN [disitertide] the “Effect of shorter treatment (4 weeks) versus 12 weeks on number and size of papillomas” value ([1]; group 5 (4 weeks) compared with group 6 (12 weeks)) was “more profound effect in inhibiting the number and size of papillomas”, the “Mean number of tumors per mouse at week 10 post-initiation” value ([1]; group 5, disitertide cream weeks 0-4, 60 μg every 2 days, week 10) was 2.3 and the “Mean number of tumors per mouse at week 14 post-initiation” value [1, 2] was 7.0. The “Mean number of tumors per mouse at week 25 post-initiation” value [1, 2] was 10.3, the “Mean number of tumors per mouse at week 32 post-initiation” value [1, 2] was 7.8 and the “Appearance of the first carcinoma, weeks after initiation” value (from here on “Appearance of the first carcinoma”) [1, 3] was 17-18 weeks and 18 weeks. For the same sequence, the “Mean number of tumors >5 mm in diameter per mouse at week 14 after initiation” value [1, 3] was 0.1, the “Mean number of tumors >5 mm in diameter per mouse at week 25 after initiation” value [1, 3] was 3.3 and the “Mean number of tumors >5 mm in diameter per mouse at week 32 after initiation” value [1, 3] was 2.3. The “Mean number of tumors per mouse at week 10 post-initiation” value ([1]; group 6, disitertide cream weeks 0-12, 60 μg every 2 days, week 10) was 4.7, the “Mean number of tumors per mouse at week 14 post-initiation” value [1, 4] was 8.1 and the “Mean number of tumors per mouse at week 25 post-initiation” value [1, 4] was 8.1. For the same sequence, the “Mean number of tumors per mouse at week 32 post-initiation” value [1, 4] was 8.7, the “Appearance of the first carcinoma” value [1, 5] was 24 weeks and the “Mean number of tumors >5 mm in diameter per mouse at week 14 after initiation” value [1, 5] was 0.2. The “Mean number of tumors >5 mm in diameter per mouse at week 25 after initiation” value [1, 5] was 3.3, the “Mean number of tumors >5 mm in diameter per mouse at week 32 after initiation” value [1, 5] was 3.7 and the “Delay in the first appearance of carcinomas” value ([1]; group 6, disitertide for 12 weeks post-initiation) was “about 6 weeks”. The “Mean number of tumors per mouse at week 10 post-initiation” value ([1]; group 7, disitertide cream weeks 12-32, 120 μg every 2 days, week 10 (before treatment start)) was 6.8, the “Mean number of tumors per mouse at week 14 post-initiation” value [1, 6] was 12.6 and the “Mean number of tumors per mouse at week 25 post-initiation” value [1, 6] was 10.2. For the same sequence, the “Mean number of tumors per mouse at week 32 post-initiation” value [1, 6] was 8.8, the “Appearance of the first carcinoma” value [1, 7] was 32 weeks and the “Mean number of tumors >5 mm in diameter per mouse at week 14 after initiation” value [1, 7] was 0.7. The “Mean number of tumors >5 mm in diameter per mouse at week 25 after initiation” value [1, 7] was 3.1, the “Mean number of tumors >5 mm in diameter per mouse at week 32 after initiation” value [1, 7] was 3.8 and the “Reduction in the number or size of already established papillomas” value ([1]; group 7, application from week 12 after DMBA initiation, for 20 weeks, 7-8 papillomas per mouse at start) was “No significant reduction in the number or size of papillomas”. For the same sequence, the “Delay in the first appearance of carcinomas” value ([1]; group 7, disitertide during weeks 12 to 32, papillomas present at start of treatment) was “about 14 weeks”, the “Fewer benign papillomas than in untreated or vehicle-treated mice” value ([1]; groups 5 and 6 (disitertide cream for 4 and 12 weeks) vs groups 3 and 4, at 10 and 14 weeks post-initiation) was 30-60% and the “Capacity to act as TGF-β1 inhibitor” value (TGF-β1) was “act as TGF-β1 inhibitors”.
